{"source": "paper PMC11723922", "key": {"[1]": {"target": "eGFP-TGM4 fusion, full length (TGM4 D1-5) (Heligmosomoides polygyrus)", "assay": "co-IP; GFP-TRAP beads on lysates (10 mM Tris-HCl pH 7.5, 150 mM NaCl, 0.5 mM EDTA, 0.5% NP-40) of MFB-F11 or RAW264.7 cells transfected with eGFP-TGM fusions; 1 h at 4 °C; western blot for endogenous TβRI, TβRII, CD44"}, "[2]": {"target": "eGFP-TGM1 fusion (TGM1 D1-5) (Heligmosomoides polygyrus)", "assay": "co-IP; GFP-TRAP beads on lysates (10 mM Tris-HCl pH 7.5, 150 mM NaCl, 0.5 mM EDTA, 0.5% NP-40) of MFB-F11 or RAW264.7 cells transfected with eGFP-TGM fusions; 1 h at 4 °C; western blot for endogenous TβRI, TβRII, CD44"}}, "note": "No constants are given. Whether binding was seen depends on the method and setting. In cells and extracts the contact can be indirect. A result given as binding can be weak or reduced; the word gives no strength."}
{"binder": "CD44, endogenous mouse (receptor, UniProt P15379 23-778) QIDLNVTCRYAGVFHVEKNGRYSISRTEAADLCQAFNSTLPTMDQMKLALSKGFETCRYGFIEGNVVIPRIHPNAICAANHTGVYILVTSNTSHYDTYCFNASAPPEEDCTSVTDLPNSFDGPVTITIVNRDGTRYSKKGEYRTHQEDIDASNIIDDDVSSGSTIEKSTPEGYILHTYLPTEQPTGDQDDSFFIRSTLATIASTVHSKSHAAAQKQNNWIWSWFGNSQSTTQTQEPTTSATTALMTTPETPPKRQEAQNWFSWLFQPSESKSHLHTTTKMPGTESNTNPTGWEPNEENEDETDTYPSFSGSGIDDDEDFISSTIATTPRVSARTEDNQDWTQWKPNHSNPEVLLQTTTRMADIDRISTSAHGENWTPEPQPPFNNHEYQDEEETPHATSTTPNSTAEAAATQQETWFQNGWQGKNPPTPSEDSHVTEGTTASAHNNHPSQRITTQSQEDVSWTDFFDPISHPMGQGHQTESKDTDSSHSTTLQPTAAPNTHLVEDLNRTGPLSVTTPQSHSQNFSTLHGEPEEDENYPTTSILPSSTKSSAKDARRGGSLPTDTTTSVEGYTFQYPDTMENGTLFPVTPAKTEVFGETEVTLATDSNVNVDGSLPGDRDSSKDSRGSSRTVTHGSELAGHSSANQDSGVTTTSGPMRRPQIPEWLIILASLLALALILAVCIAVNSRRRCGQKKKLVINGGNGTVEDRKPSELNGEASKSQEMVHLVNKEPSETPDQCMTADETRNLQSVDMKIGV", "values": [{"measurement": "binding", "setting": "[1]", "value": "binds"}, {"measurement": "binding", "setting": "[2]", "value": "binds"}]}
